According to PubChem BioAssay AID1117319 (Southern Research Institute, 2015):
Several values for one entry are separate records, joined by “and”; a condition that tells them apart may be missing. Equal values may be shown once. The campaign covered roughly 260,000 compounds. About 1,500 (0.58%) were called active. This list was built around the results that the source calls inconclusive (neither active nor inactive); the mix of calls is not that of the screen.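 The calls were made as follows: active = inhibition above a set limit at one or more doses, reproduced on every date tested; inconclusive = results disagree between test dates, or hit never tested in dose response; inactive = the rest.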

By UniProt entry, the sequences of proteins in these tests, tags left out. Where a name states a change or a piece, a line headed by the entry shows the natural chain unless it says otherwise.
UniProt P69720: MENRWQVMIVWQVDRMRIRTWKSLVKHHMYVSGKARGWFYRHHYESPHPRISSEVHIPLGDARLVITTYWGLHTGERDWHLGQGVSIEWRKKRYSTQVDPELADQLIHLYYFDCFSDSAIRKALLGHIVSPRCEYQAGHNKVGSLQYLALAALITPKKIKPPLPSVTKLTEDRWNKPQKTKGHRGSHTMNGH
UniProt P69721: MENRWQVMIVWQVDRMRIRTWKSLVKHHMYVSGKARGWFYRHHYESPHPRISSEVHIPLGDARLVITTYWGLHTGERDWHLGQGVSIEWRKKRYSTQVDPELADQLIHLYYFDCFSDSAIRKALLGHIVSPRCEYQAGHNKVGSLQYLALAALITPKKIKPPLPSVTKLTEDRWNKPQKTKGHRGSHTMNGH
UniProt P69722: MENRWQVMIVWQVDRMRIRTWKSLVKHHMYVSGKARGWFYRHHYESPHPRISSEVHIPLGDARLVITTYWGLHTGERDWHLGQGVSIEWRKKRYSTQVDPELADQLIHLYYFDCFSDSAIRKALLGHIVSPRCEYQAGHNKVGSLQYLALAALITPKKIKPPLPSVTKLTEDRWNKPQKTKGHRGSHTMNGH
UniProt P69723: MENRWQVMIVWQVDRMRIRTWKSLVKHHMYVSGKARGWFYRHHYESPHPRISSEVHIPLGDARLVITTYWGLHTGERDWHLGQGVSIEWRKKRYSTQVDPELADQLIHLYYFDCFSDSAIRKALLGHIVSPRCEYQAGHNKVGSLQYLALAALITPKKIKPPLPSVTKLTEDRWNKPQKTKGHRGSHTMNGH
UniProt Q9HC16: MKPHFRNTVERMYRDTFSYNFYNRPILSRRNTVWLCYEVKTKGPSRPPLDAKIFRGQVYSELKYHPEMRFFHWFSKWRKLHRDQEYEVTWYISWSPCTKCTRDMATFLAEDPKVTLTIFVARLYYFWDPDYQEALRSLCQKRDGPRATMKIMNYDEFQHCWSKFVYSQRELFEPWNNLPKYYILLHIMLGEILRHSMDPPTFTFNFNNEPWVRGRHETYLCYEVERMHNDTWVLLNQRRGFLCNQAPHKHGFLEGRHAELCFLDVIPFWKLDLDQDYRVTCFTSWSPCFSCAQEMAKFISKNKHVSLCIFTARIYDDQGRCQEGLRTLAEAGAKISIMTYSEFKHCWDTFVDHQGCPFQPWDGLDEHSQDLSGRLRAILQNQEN

Each compound was assayed against Virion infectivity factor (Human immunodeficiency virus type 1 group M subtype B (isolate BH10)) + Virion infectivity factor (Human immunodeficiency virus type 1 group M subtype B (isolate BRU/LAI)) + Virion infectivity factor (Human immunodeficiency virus type 1 group M subtype B (isolate PCV12)) + Virion infectivity factor (Human immunodeficiency virus type 1 group M subtype B (isolate HXB2)) + DNA dC->dU-editing enzyme APOBEC-3G (Homo sapiens) (UniProt P69720+P69721+P69722+P69723+Q9HC16) (assay: inhibitors of Vif binding to APOBEC3G peptide, primary screen, biochemical, TR-FRET, GST-Vif 1-94, biotin-A3G peptide, dose response retest (AID 1117319;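 also: Vif residues 1-94 fused to GST binding biotinylated APOBEC3G peptide 110-148; 0% = full assay without inhibitor and 100% = GST in place of GST-Vif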)). Details: active compounds read high.

How did the inhibition turn out when `COc1cc(OC)cc(C(=O)NC(C)c2cnn(-c3ccccc3C)c2C)c1` (stereo not given) was run?
Its inhibition is inconclusive: 40.5%.

Which inhibition does the source give for `Cc1ccc(S(=O)(=O)N2CCOCC2)cc1NC(=O)COC(=O)c1ccc2c(c1)OCCO2` here?
Its inhibition is inactive: -7.03%.

With `CC1(C)CC(=O)c2cc(OCC(=O)NCCCN3CCN(c4ccc(F)cc4)CC3)ccc2O1` as the compound, how does the inhibition read?
Its inhibition is inactive: -7.66% and inactive: 5.99%.

Which inhibition does the source give for `CSC1=N/C(=C\c2ccc(C)o2)C(=O)S1` here?
The inhibition was inconclusive: 41.9%.

How did the inhibition turn out when `O=C(OCCN1C(=O)c2ccccc2C1=O)c1cc(S(=O)(=O)N2CCOCC2)ccc1F` was run?
Its inhibition is inactive: -0.69%.

Which inhibition does the source give for `O=C1C(=O)N(Cc2cccnc2)C(c2ccccn2)/C1=C(/O)c1ccccc1` (stereo not given) here?
The inhibition was inconclusive: 37.4%.

Which inhibition does the source give for `CCN(CC(=O)Nc1c(C(=O)OC)[nH]c2ccc(C)cc12)c1ccc2c(c1)OCO2` here?
Its inhibition is inconclusive: 45%.

For `CCN(c1ccccc1)S(=O)(=O)c1ccc(OC)c(NS(=O)(=O)c2cccs2)c1`, which inhibition is on record?
Its inhibition is inconclusive: 35.1%.

With `Clc1cccc(-c2nc(NCCN3CCOCC3)c3ccccc3n2)c1` as the compound, how does the inhibition read?
Its inhibition is inconclusive: 46.7%.

For `Cc1ccc(C(=O)n2ncn(C)c2=S)cc1`, which inhibition is on record?
The inhibition was inactive: -5.15%.

`Cc1cccc2cc(C#N)c(N3CCCC3)nc12` was tested. Which inhibition did it give?
The inhibition was inconclusive: 41.4%.

How did the inhibition turn out when `COc1ccc(Nc2nnc(-c3ccc(O)cc3)c3ccccc23)cc1` was run?
Its inhibition is inconclusive: 37.1%.

With `CCOc1ccccc1NC=C1C(=O)OC(C)(C)OC1=O` as the compound, how does the inhibition read?
The inhibition was inconclusive: 61.3%.

For `CCOC(=O)c1nc(NCc2cccc(OC)c2)c2ccccc2n1`, which inhibition is on record?
The inhibition was inactive: -2.69%.

How did the inhibition turn out when `COc1ccc2[nH]c(=O)c(CN(Cc3cccs3)Cc3nnnn3Cc3ccccc3)cc2c1` was run?
Its inhibition is inconclusive: 51%.

Which inhibition does the source give for `CC(C)(C)OC(=O)N1CCC[C@H]1C(=O)NCC1CCC(C(=O)O)CC1` (stereo not given in full) here?
The inhibition was inconclusive: 35.5%.

Which inhibition does the source give for `O=C(COC(=O)c1ccc2c(c1)OCO2)Nc1ccccc1` here?
The inhibition was inconclusive: 35.6%.

Which inhibition does the source give for `O=C(CCCc1ccccc1)NCc1cccnc1` here?
Its inhibition is inconclusive: 35.2%.

With `O=C(c1ccc(F)cc1)N1CCN(C2CCC(c3ccccc3)CC2)CC1` (stereo not given) as the compound, how does the inhibition read?
Its inhibition is inconclusive: 43.6%.

`COC(=O)C1CCN(C(=O)/C=C/c2ccc(OC)cc2)CC1` was tested. Which inhibition did it give?
The inhibition was inconclusive: 33.6%.

Which inhibition does the source give for `COC(=O)CCC(=O)Nc1ccc(OC)cc1` here?
The inhibition was inconclusive: 60.3%.

For `COC(=O)c1cc(-c2ccc(Br)cc2)n[nH]1`, which inhibition is on record?
Its inhibition is inconclusive: 54.3%.

With `Nc1nc(SCC(=O)NNc2c(Cl)cc(Cl)cc2Cl)n[nH]1` as the compound, how does the inhibition read?
The inhibition was inconclusive: 34.2%.

For `Cc1cc(NC(=O)CC#N)n(-c2nc3ccccc3[nH]2)n1`, which inhibition is on record?
The inhibition was inconclusive: 50.9%.

For `Cc1c(C(=O)NCc2ccccc2)oc2ccc(S(=O)(=O)N3CCC4(CC3)OCCO4)cc12`, which inhibition is on record?
The inhibition was inconclusive: 47.4%.
